Laboratory results taken from PubChem BioAssay AID1487 (National Center for Advancing Translational Sciences (NCATS), 2009).
Values joined by “and” are separate entries in the source; they are usually repeats but may differ in a detail not shown here. Equal values may be shown once. The list shows a part of the results. Shown are side measurements of this screen, not its main read-out; they come without a call. Compounds called inactive in the main read-out are mostly missing here. Words in brackets tell the shape of the fitted curve; partial curves, single points and poor fits give uncertain potencies.

Experiment: qHTS Assay for Modulators of Lamin A Splicing
Settings: HeLa LMNA splicing GFP/RFP minigene ratio, 48 h
Method in brief: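 S3 HeLa stable clones carrying a lamin A-EGFP splicing minigene plus DsRed2 were seeded at 600 cells/well in Opti-MEM with 2% FBS, pin-dosed and incubated 48 h at 37°C. Acumen cytometry (488 nm) gave the GFP/RFP total-intensity ratio.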

[1] = measured here: GFP splicing reporter channel
[2] = measured here: RFP viability control channel

| Structure (SMILES) | AC50 [1] | AC50 [2] |
| --- | --- | --- |
| COc1ccc(Oc2cc(NC(=O)c3nn(C)cc3[N+](=O)[O-])cc([N+](=O)[O-])c2)cc1 | 14.1 µM [falling, partial curve] | 15.8 µM [falling, single point] |
| O=C1C(c2ccccc2)=C(N2CC2)c2ccccc21 | 11.2 µM [rising, partial curve] | 15.8 µM [rising, partial curve] |
| Oc1ccc2c3c1O[C@H]1[C@@H](O)CC[C@]4(O)[C@H](C2)N(CC2CCC2)CC[C@@]314 | 7.94 µM [falling, partial curve] | 14.1 µM [falling, single point] |
| CCCNS(=O)(=O)c1ccc(OCC(=O)N2CCN(Cc3ccc4c(c3)OCO4)CC2)cc1 | 3.16 µM [rising, full curve] | 10 µM [rising, partial curve] |
| NC(N)=NN=Cc1c(Cl)cccc1Cl | 0.2 µM [falling, partial curve, poor fit] | 0.355 µM [falling, single point] |
| CC(C)CN(C(=O)CN1CC=C(c2ccccc2)CC1)c1c(N)n(CC(C)C)c(=O)[nH]c1=O | – | 0.0501 µM [falling, full curve] |
| O=C1CN=C(c2ccccc2)c2cc([N+](=O)[O-])ccc2N1 | – | 3.55 µM [falling, single point] |
| Cc1ccc(S(=O)(=O)N[C@@H](CCCCN)C(=O)CCl)cc1 | 25.1 µM [falling, single point] | 0.0316 µM [rising, full curve] |
| C[C@]12CCC(=O)C=C1CCc1ccc(O)cc12 | 12.6 µM [rising, partial curve] | 11.2 µM [rising, partial curve] |
| Nc1ccc(N)cc1 | 10 µM [rising, partial curve, poor fit] | – |
| O=C(Nc1ccccc1)N(Cc1ccc2c(c1)OCO2)C1CCN(Cc2ccccc2)CC1 | – | 0.0224 µM [rising, full curve, poor fit] |
| CCc1ccccc1N1C(=O)CC(=O)NC1=O | – | 6.31 µM [falling, single point] |
| Cc1cccc(C)c1NC1=NCCCS1 | 398 nM [falling, partial curve] and 0.794 nM [falling, full curve, poor fit] | 35.5 µM [falling, single point] and 1.12 nM [falling, full curve, poor fit] |
| COc1ccc(CC2(CCc3ccncc3)C(=O)NC(=O)NC2=O)cc1 | 3.55 µM [falling, full curve] | 2 µM [falling, full curve] |

Nothing new here: entries from further up.

| Structure (SMILES) | AC50 [1] | AC50 [2] |
| --- | --- | --- |
| Nc1ccc(N)cc1 | 10 µM [rising, partial curve, poor fit] | – |
| O=C(Nc1ccccc1)N(Cc1ccc2c(c1)OCO2)C1CCN(Cc2ccccc2)CC1 | – | 0.0224 µM [rising, full curve, poor fit] |
